PubChem BioAssay AID1259314 – Drosophila RNAi Screening Center – 2017

Aim: 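Modifiers of manganese chloride toxicity in fly cells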 (primary screen)
System: Drosophila S2R+ cells
Reagents: long dsRNA against Drosophila genes
Timing: 5 days (4 days knock-down, then 1 day metal exposure)
Conditions: manganese chloride added to 15 mM for 24 hours
Measured: 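Cellular ATP measured by luciferase light, scaled to the plate mean, averaged across replicates and z-scored over plates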
Scale: mean ATP z-score: higher = more ATP than the plate average, more viable cells under manganese
Rule for the call: 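Called active when the mean ATP z-score is above 1.5 or below -1.5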
Calls: active = strong ATP change, up or down; inactive = no strong ATP change
The deposit covers about 3,100 reagents; shown is a random part of them. In the full data, 289 (9.3%) are marked active. 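Active includes both higher and lower ATP than plate average; check the z-score sign for direction.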 Entries without a mark were called inactive. Names joined by + are all predicted targets of the reagent. Not given: the amount of reagent.

gene knocked down	amplicon	mean ATP z-score
fz2 (frizzled 2)	DRSC10087	-0.935
fz2 (frizzled 2)	DRSC11349	-0.712
Or65a (Odorant receptor 65a)	DRSC08808	-0.404
Or65a (Odorant receptor 65a)	DRSC39609	0.181
Orco (Odorant receptor co-receptor)	DRSC12358	0.139
Orco (Odorant receptor co-receptor)	DRSC27061	1.04
CG31998	DRSC17137	0.588
CG31998	DRSC17138	0.0174
CG2121	DRSC06819	-0.357
CG2121	DRSC06820	-0.175
Rift (Riboflavin transporter)	DRSC14330	1.27
Zip102B (Zinc/iron regulated transporter-related protein 102B)	DRSC26001	-1.29
Zip102B (Zinc/iron regulated transporter-related protein 102B)	DRSC39739	0.533
CG32986	DRSC02509	0.567
CG32986	DRSC39699	0.569
AstC-R2 (Allatostatin C receptor 2)	DRSC23467	-0.814
AstC-R2 (Allatostatin C receptor 2)	DRSC39469	0.0744
Ih (I[[h]] channel)	DRSC07445	-1.74 (active)
Ih (I[[h]] channel)	DRSC24809	0.89
Osi16 (Osiris 16)	DRSC21323	-0.66
CG1246	DRSC08275	-0.0827
CG1246	DRSC39873	1.3
CG7227	DRSC03032	1.42
CG7227	DRSC39466	0.957
Dolk (Dolichol kinase)	DRSC07143	-0.462
Dolk (Dolichol kinase)	DRSC39578	0.548
GluRIA (Glutamate receptor IA)	DRSC11176	-0.98
Vha100-4 (Vacuolar H[+] ATPase 100kD subunit 4)	DRSC16282	0.183
Vha100-4 (Vacuolar H[+] ATPase 100kD subunit 4)	DRSC26139	1
pippin	DRSC04489	-0.739
pippin	DRSC39700	1.43
CG8630	DRSC16441	-0.143
CG8630	DRSC24081	-0.836
Inx7 (Innexin 7)	DRSC18784	0.154
Inx7 (Innexin 7)	DRSC24113	0.523
Nup58 (Nucleoporin 58kD)	DRSC16235	1.64 (active)
Nup58 (Nucleoporin 58kD)	DRSC27863	0.16
GAA1 (Glycosylphosphatidylinositol anchor attachment 1)	DRSC18267	-0.382
GAA1 (Glycosylphosphatidylinositol anchor attachment 1)	DRSC39778	-1.24
Nhe1 (Na[+]/H[+] hydrogen exchanger 1)	DRSC00762	-0.465
Nhe1 (Na[+]/H[+] hydrogen exchanger 1)	DRSC39761	-0.57
Zip88E (Zinc/iron regulated transporter-related protein 88E)	DRSC15562	-0.48
Zip88E (Zinc/iron regulated transporter-related protein 88E)	DRSC25826	-0.178
CG4607	DRSC18375	0.273
Oamb (Octopamine receptor in mushroom bodies)	DRSC13433	0.405
Oamb (Octopamine receptor in mushroom bodies)	DRSC15120	0.614
Oamb (Octopamine receptor in mushroom bodies)	DRSC16763	0.0978
CG13795	DRSC02299	4.5 (active)
CG13795	DRSC39907	2.14 (active)
ItgaPS4 (Integrin alphaPS4 subunit)	DRSC06630	0.115
zpg (zero population growth)	DRSC09702	-0.742
zpg (zero population growth)	DRSC26258	0.00792
AQP (aquaporin)	DRSC06122	-0.452
AQP (aquaporin)	DRSC39533	-0.485
CG30339	DRSC05168	-0.388
CG15614	DRSC06567	-0.434
CG17321	DRSC02598	-0.19
CG17321	DRSC25649	-0.91
Gr22c (Gustatory receptor 22c)	DRSC29715	-0.0256
CG32091	DRSC10820	-0.661
CG32091	DRSC39787	-0.4
Papst2 (PAPS transporter 2)	DRSC10924	1.66 (active)
Papst2 (PAPS transporter 2)	DRSC27212	1.11
COX7A (Cytochrome c oxidase subunit 7A)	DRSC16514	-1.77 (active)
CG3164	DRSC00572	-0.828
rho-4 (rhomboid-4)	DRSC19761	1.96 (active)
rho-4 (rhomboid-4)	DRSC19762	-0.403
wit (wishful thinking)	DRSC08741	0.466
wit (wishful thinking)	DRSC26091	-0.343
wit (wishful thinking)	DRSC37034	-0.843
ATP8A (ATPase 8A)	DRSC06643	-1.23
ATP8A (ATPase 8A)	DRSC06644	-1.59 (active)
Pex13 (Peroxin 13)	DRSC06877	-0.682
kek2 (kekkon 2)	DRSC03552	0.296
kek2 (kekkon 2)	DRSC26189	-0.53
Or85b (Odorant receptor 85b)	DRSC16765	-0.459
Or85b (Odorant receptor 85b)	DRSC39611	-0.286
sdk (sidekick)	DRSC18831	-0.246
sdk (sidekick)	DRSC39522	0.582
CG1636	DRSC18111	4.48 (active)
CG42288	DRSC06381	0.259
drd (drop dead)	DRSC19343	0.0221
drd (drop dead)	DRSC26473	-0.523
CG32512	DRSC20519	0.128
CG32512	DRSC21401	-0.238
snky (sneaky)	DRSC09838	-0.54
snky (sneaky)	DRSC39770	-0.756
Elovl7 (ELOVL fatty acid elongase 7)	DRSC15452	-0.501
Elovl7 (ELOVL fatty acid elongase 7)	DRSC21570	-1.43
Elovl7 (ELOVL fatty acid elongase 7)	DRSC25259	0.326
PGRP-SC1a + PGRP-SC1b	DRSC25294	2.2 (active)
Tmem63 (Transmembrane protein 63)	DRSC06063	0.286
Tmem63 (Transmembrane protein 63)	DRSC27402	-0.383
CG1662	DRSC19754	-1.36
Lgr4 (Leucine-rich repeat-containing G protein-coupled receptor 4)	DRSC18970	-0.79
Lgr4 (Leucine-rich repeat-containing G protein-coupled receptor 4)	DRSC19884	0.223
Lgr4 (Leucine-rich repeat-containing G protein-coupled receptor 4)	DRSC24434	-0.727
phtf	DRSC05023	1.34
phtf	DRSC28441	0.175
Pdfr (Pigment-dispersing factor receptor)	DRSC18614	1.09
Pdfr (Pigment-dispersing factor receptor)	DRSC39789	-1.11
CG6282	DRSC29524	0.289
Lkr (Leucokinin receptor)	DRSC09754	-1.25
Lkr (Leucokinin receptor)	DRSC39496	-0.697
CG13796	DRSC24686	-0.802
Ir56c (Ionotropic receptor 56c)	DRSC06544	0.0138
Ir56c (Ionotropic receptor 56c)	DRSC26227	0.642
Lcch3 + Ranbp16	DRSC39860	-0.941
CG14606	DRSC12550	0.318
tty (tweety)	DRSC20588	-0.815
tty (tweety)	DRSC26868	-0.856

A stretch taken from the entries so far:
gene knocked down	amplicon	mean ATP z-score
AstC-R2 (Allatostatin C receptor 2)	DRSC23467	-0.814
AstC-R2 (Allatostatin C receptor 2)	DRSC39469	0.0744
Ih (I[[h]] channel)	DRSC07445	-1.74 (active)
Ih (I[[h]] channel)	DRSC24809	0.89
Osi16 (Osiris 16)	DRSC21323	-0.66
CG1246	DRSC08275	-0.0827
CG1246	DRSC39873	1.3
CG7227	DRSC03032	1.42
